# Data as given in publication PMC3738494, “A Systematic Analysis of Host Factors Reveals a Med23-Interferon-λ Regulatory Axis against Herpes Simplex Virus Type 1 Replication” (PLoS Pathogens, 2013).
# These are yes or no findings as the source states them, for the method shown. For part of these data: Binding seen in cells or lysates may run through a third protein. Some results given as binding are weak or reduced against the parent protein; the word gives no strength. For part of these data: Where a sequence is shown, tags or fusion partners need not be part of it.
# T1: Med23, myc-tagged fusion protein expressed in HEK cells (human) (UniProt Q9ULK4)
# T1 sequence: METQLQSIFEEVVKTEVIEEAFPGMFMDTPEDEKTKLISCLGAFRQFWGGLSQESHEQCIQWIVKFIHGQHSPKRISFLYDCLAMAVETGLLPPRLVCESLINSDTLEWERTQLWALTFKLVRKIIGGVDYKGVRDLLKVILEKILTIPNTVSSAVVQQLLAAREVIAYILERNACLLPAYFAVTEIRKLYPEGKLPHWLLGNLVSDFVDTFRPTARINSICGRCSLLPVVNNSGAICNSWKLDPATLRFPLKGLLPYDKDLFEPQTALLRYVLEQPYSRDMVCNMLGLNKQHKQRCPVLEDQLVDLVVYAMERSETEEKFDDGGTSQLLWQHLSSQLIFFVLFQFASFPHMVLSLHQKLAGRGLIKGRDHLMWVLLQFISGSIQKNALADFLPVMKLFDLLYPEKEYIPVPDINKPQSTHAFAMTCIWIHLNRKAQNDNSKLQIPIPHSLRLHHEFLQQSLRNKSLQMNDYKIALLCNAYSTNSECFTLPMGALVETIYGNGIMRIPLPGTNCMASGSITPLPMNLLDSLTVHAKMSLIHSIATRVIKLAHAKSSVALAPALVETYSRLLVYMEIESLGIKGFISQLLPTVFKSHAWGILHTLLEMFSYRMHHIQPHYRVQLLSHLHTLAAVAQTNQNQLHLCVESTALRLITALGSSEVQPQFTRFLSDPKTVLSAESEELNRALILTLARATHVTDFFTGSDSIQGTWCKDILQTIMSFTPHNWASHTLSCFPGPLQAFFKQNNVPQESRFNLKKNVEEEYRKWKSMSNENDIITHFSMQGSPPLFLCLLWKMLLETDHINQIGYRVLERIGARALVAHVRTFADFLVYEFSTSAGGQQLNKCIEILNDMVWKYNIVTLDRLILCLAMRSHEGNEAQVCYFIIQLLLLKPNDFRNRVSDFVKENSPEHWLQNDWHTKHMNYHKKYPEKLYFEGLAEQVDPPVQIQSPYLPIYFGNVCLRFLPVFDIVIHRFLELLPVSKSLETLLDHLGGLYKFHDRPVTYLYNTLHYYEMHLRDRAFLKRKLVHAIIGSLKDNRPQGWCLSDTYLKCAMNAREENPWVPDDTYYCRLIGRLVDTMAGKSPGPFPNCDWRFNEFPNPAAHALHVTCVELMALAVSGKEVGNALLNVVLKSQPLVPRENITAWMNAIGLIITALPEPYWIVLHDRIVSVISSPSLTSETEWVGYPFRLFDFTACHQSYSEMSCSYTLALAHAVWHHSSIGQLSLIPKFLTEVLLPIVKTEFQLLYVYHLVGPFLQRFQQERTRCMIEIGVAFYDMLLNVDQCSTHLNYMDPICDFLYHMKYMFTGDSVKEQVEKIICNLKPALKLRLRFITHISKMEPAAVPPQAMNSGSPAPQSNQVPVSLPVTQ
# T2: Med23 (Mediator complex subunit 23), yeast two-hybrid bait pGBKT7-Med23 (human) (UniProt Q9ULK4)
# T2 sequence: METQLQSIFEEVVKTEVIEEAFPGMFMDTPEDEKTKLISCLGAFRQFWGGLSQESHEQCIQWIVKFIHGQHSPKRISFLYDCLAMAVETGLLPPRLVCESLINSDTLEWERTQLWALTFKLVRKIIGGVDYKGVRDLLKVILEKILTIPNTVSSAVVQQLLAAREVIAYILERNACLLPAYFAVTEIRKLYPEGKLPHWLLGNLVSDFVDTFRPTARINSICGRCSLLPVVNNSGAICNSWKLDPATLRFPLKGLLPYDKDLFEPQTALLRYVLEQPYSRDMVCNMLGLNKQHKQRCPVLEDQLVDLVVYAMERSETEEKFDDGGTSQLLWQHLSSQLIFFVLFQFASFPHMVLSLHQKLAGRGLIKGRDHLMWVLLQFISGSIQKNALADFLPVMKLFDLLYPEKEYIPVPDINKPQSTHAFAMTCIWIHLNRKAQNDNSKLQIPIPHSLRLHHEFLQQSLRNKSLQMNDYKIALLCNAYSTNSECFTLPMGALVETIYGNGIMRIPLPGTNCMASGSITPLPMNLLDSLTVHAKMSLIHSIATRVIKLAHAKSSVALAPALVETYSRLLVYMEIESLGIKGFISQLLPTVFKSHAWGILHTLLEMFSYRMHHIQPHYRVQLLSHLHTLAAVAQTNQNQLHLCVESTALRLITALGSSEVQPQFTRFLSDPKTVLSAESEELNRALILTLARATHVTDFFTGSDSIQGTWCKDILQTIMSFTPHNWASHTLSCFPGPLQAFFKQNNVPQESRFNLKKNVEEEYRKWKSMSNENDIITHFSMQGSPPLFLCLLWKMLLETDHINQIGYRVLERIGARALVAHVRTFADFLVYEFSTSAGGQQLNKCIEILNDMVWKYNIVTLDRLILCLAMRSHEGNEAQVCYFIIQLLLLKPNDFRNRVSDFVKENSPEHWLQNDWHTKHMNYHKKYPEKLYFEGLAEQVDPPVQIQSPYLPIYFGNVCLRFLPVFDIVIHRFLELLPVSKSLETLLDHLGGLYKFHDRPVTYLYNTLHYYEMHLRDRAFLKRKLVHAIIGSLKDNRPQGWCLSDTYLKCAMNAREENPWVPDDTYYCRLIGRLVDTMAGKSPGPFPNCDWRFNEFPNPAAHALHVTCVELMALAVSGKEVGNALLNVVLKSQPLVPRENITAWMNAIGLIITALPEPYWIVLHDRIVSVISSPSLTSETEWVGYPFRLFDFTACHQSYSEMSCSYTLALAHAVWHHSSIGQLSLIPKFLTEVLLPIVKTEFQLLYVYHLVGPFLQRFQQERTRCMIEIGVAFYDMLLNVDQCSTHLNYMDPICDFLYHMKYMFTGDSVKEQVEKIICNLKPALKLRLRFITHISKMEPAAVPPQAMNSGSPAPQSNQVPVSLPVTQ
# Molecular target: T1, Med23, myc-tagged fusion protein expressed in HEK cells (human)
# Assay: co-IP; myc-Med23 and HA-IRF co-expressed in HEK293 (vTF-7, T7 promoter); NP40 lysate; IP with anti-myc, blot with anti-HA
row,Binder,binding
1,"IRF4, HA-tagged, expressed in HEK cells (protein, UniProt Q15306 1-451) MNLEGGGRGGEFGMSAVSCGNGKLRQWLIDQIDSGKYPGLVWENEEKSIFRIPWKHAGKQDYNREEDAALFKAWALFKGKFREGIDKPDPPTWKTRLRCALNKSNDFEELVERSQLDISDPYKVYRIVPEGAKKGAKQLTLEDPQMSMSHPYTMTTPYPSLPAQQVHNYMMPPLDRSWRDYVPDQPHPEIPYQCPMTFGPRGHHWQGPACENGCQVTGTFYACAPPESQAPGVPTEPSIRSAEALAFSDCRLHICLYYREILVKELTTSSPEGCRISHGHTYDASNLDQVLFPYPEDNGQRKNIEKLLSHLERGVVLWMAPDGLYAKRLCQSRIYWDGPLALCNDRPNKLERDQTCKLFDTQQFLSELQAFAHHGRSLPRFQVTLCFGEEFPDPQRQRKLITAHVEPLLARQLYYFAQQNSGHFLRGYDLPEHISNPEDYHRSIRHSSIQE",binds
2,"IRF7, HA-tagged, expressed in HEK cells (natural protein, human, UniProt Q92985 1-503, looked up) MALAPERAAPRVLFGEWLLGEISSGCYEGLQWLDEARTCFRVPWKHFARKDLSEADARIFKAWAVARGRWPPSSRGGGPPPEAETAERAGWKTNFRCALRSTRRFVMLRDNSGDPADPHKVYALSRELCWREGPGTDQTEAEAPAAVPPPQGGPPGPFLAHTHAGLQAPGPLPAPAGDKGDLLLQAVQQSCLADHLLTASWGADPVPTKAPGEGQEGLPLTGACAGGPGLPAGELYGWAVETTPSPGPQPAALTTGEAAAPESPHQAEPYLSPSPSACTAVQEPSPGALDVTIMYKGRTVLQKVVGHPSCTFLYGPPDPAVRATDPQQVAFPSPAELPDQKQLRYTEELLRHVAPGLHLELRGPQLWARRMGKCKVYWEVGGPPGSASPSTPACLLPRNCDTPIFDFRVFFQELVEFRARQRRGSPRYTIYLGFGQDLSAGRPKEKSLVLVKLEPWLCRVHLEGTQREGVSSLDSSSLSLCLSSANSLYDDIECFLMELEQPA",binds
3,"IRF9, HA-tagged, expressed in HEK cells (protein, UniProt Q00978 1-393) MASGRARCTRKLRNWVVEQVESGQFPGVCWDDTAKTMFRIPWKHAGKQDFREDQDAAFFKAWAIFKGKYKEGDTGGPAVWKTRLRCALNKSSEFKEVPERGRMDVAEPYKVYQLLPPGIVSGQPGTQKVPSKRQHSSVSSERKEEEDAMQNCTLSPSVLQDSLNNEEEGASGGAVHSDIGSSSSSSSPEPQEVTDTTEAPFQGDQRSLEFLLPPEPDYSLLLTFIYNGRVVGEAQVQSLDCRLVAEPSGSESSMEQVLFPKPGPLEPTQRLLSQLERGILVASNPRGLFVQRLCPIPISWNAPQAPPGPGPHLLPSNECVELFRTAYFCRDLVRYFQGLGPPPKFQVTLNFWEESHGSSHTPQNLITVKMEQAFARYLLEQTPEQQAAILSLV",binds weakly

# Molecular target: T2, Med23 (Mediator complex subunit 23), yeast two-hybrid bait pGBKT7-Med23 (human)
# Assay: two-hybrid; pairwise mating: Med23 bait (pGBKT7, Y187) with IRF preys (pGADT7, AH109); growth on SD-LWH with 3-AT and fluorescence from 4-MuX cleavage, quadruplicates
row,Binder,binding
1,"IRF4, yeast two-hybrid prey pGADT7-IRF4 (protein, UniProt Q15306 1-451) MNLEGGGRGGEFGMSAVSCGNGKLRQWLIDQIDSGKYPGLVWENEEKSIFRIPWKHAGKQDYNREEDAALFKAWALFKGKFREGIDKPDPPTWKTRLRCALNKSNDFEELVERSQLDISDPYKVYRIVPEGAKKGAKQLTLEDPQMSMSHPYTMTTPYPSLPAQQVHNYMMPPLDRSWRDYVPDQPHPEIPYQCPMTFGPRGHHWQGPACENGCQVTGTFYACAPPESQAPGVPTEPSIRSAEALAFSDCRLHICLYYREILVKELTTSSPEGCRISHGHTYDASNLDQVLFPYPEDNGQRKNIEKLLSHLERGVVLWMAPDGLYAKRLCQSRIYWDGPLALCNDRPNKLERDQTCKLFDTQQFLSELQAFAHHGRSLPRFQVTLCFGEEFPDPQRQRKLITAHVEPLLARQLYYFAQQNSGHFLRGYDLPEHISNPEDYHRSIRHSSIQE",binds
2,"IRF7, yeast two-hybrid prey pGADT7-IRF7 (protein, UniProt Q92985 1-503) MALAPERAAPRVLFGEWLLGEISSGCYEGLQWLDEARTCFRVPWKHFARKDLSEADARIFKAWAVARGRWPPSSRGGGPPPEAETAERAGWKTNFRCALRSTRRFVMLRDNSGDPADPHKVYALSRELCWREGPGTDQTEAEAPAAVPPPQGGPPGPFLAHTHAGLQAPGPLPAPAGDKGDLLLQAVQQSCLADHLLTASWGADPVPTKAPGEGQEGLPLTGACAGGPGLPAGELYGWAVETTPSPGPQPAALTTGEAAAPESPHQAEPYLSPSPSACTAVQEPSPGALDVTIMYKGRTVLQKVVGHPSCTFLYGPPDPAVRATDPQQVAFPSPAELPDQKQLRYTEELLRHVAPGLHLELRGPQLWARRMGKCKVYWEVGGPPGSASPSTPACLLPRNCDTPIFDFRVFFQELVEFRARQRRGSPRYTIYLGFGQDLSAGRPKEKSLVLVKLEPWLCRVHLEGTQREGVSSLDSSSLSLCLSSANSLYDDIECFLMELEQPA",binds
3,"IRF9, yeast two-hybrid prey pGADT7-IRF9 (protein, UniProt Q00978 1-393) MASGRARCTRKLRNWVVEQVESGQFPGVCWDDTAKTMFRIPWKHAGKQDFREDQDAAFFKAWAIFKGKYKEGDTGGPAVWKTRLRCALNKSSEFKEVPERGRMDVAEPYKVYQLLPPGIVSGQPGTQKVPSKRQHSSVSSERKEEEDAMQNCTLSPSVLQDSLNNEEEGASGGAVHSDIGSSSSSSSPEPQEVTDTTEAPFQGDQRSLEFLLPPEPDYSLLLTFIYNGRVVGEAQVQSLDCRLVAEPSGSESSMEQVLFPKPGPLEPTQRLLSQLERGILVASNPRGLFVQRLCPIPISWNAPQAPPGPGPHLLPSNECVELFRTAYFCRDLVRYFQGLGPPPKFQVTLNFWEESHGSSHTPQNLITVKMEQAFARYLLEQTPEQQAAILSLV",binds weakly
